Results on 2 sequences are retold here after paper PMC5996148.

Some test systems named below: rC (human); 5 (human); AATF (human); ABHD4 (human); ACAD9 (human); ACP1 (human); ACPP (human); ACSL5 (human).
Common to all, as to assay: protein microarray (ProtoArray v5.0), streptavidin-Alexa Fluor 647
Common to all, as to conditions: 3'-biotin; 20 mM Tris (pH 7.5), 5 mM MgCl2, 100 mM KCl, 0.1% Tween-20, A/T-rich and random oligonucleotide blockers; temperature not stated; high values mean tight binding

Experiment [1] deals with protein for MGC:16479 (human).
For experiment [2], the system named is protein for MGC:19786 (human).
The subject of experiment [3] is rRNA-processing protein FCF1 homolog (human).
Experiment [4] has as its system tRNA-splicing endonuclease subunit Sen15 (human).
Experiment [5] has as its system 14-3-3 protein sigma (human).
In experiment [6] the test system is 26S proteasome non-ATPase regulatory subunit 7 (human).
The subject of experiment [7] is 3-hydroxyanthranilate 3,4-dioxygenase (human).
For experiment [8], the system named is 40S ribosomal protein SA (human).
In experiment [9] the test system is 60S ribosomal protein L29 (human).
Experiment [10] concerns A-kinase anchor protein 14 (human).
The subject of experiment [11] is A.T hook DNA-binding motif-containing protein 1 (human).
In the next experiment the target is T1, ACBD6 (UniProt Q9BR61).
T1 sequence: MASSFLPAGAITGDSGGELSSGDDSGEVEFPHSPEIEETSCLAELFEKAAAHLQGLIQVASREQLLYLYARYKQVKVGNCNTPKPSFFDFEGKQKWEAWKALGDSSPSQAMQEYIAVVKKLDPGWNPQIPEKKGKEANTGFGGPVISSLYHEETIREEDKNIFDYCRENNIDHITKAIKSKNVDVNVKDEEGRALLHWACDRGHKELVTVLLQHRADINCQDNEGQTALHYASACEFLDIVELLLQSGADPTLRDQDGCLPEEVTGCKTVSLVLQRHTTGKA

Some of the results follow. For some assays here: The exact form of the protein is not confirmed.

Take “GGTGACAGGGGTATGGGGAGGGG [G4-2 biotinylated (Ct1)]”: the binding signal in experiment [1] was -0.383 z-score; in [2], -0.402 z-score; in the experiment with rC (human), -0.372 z-score; in experiment [3], 4.28 z-score; in [4], -0.359 z-score.
Take “GGGGACAGGGGTATGGGGAGGGG [G4-3 biotinylated (CtG)]”: the binding signal in experiment [5] was -0.341 z-score; in experiment [6], -0.348 z-score; in experiment [7], -0.341 z-score; in experiment [8], -0.337 z-score; in the experiment with 5 (human), -0.334 z-score; in [9], 4.54 z-score. Moreover, the binding signal is -0.328 z-score in [10]; -0.327 z-score in experiment [11]; -0.35 z-score in the experiment on AATF (human); -0.318 z-score in the experiment with ABHD4 (human); -0.315 z-score with ACAD9 (human); -0.326 z-score in the experiment with ACBD6. Further, the binding signal in the experiment on ACP1 (human) is -0.333 z-score; in the experiment with ACPP (human), -0.322 z-score; with ACSL5 (human) it was -0.315 z-score.
